Laboratory results from paper PMC3695902.

B1: myc-tagged truncated SIAH1 (trSIAH1, residues 91-282) (domain or fragment, UniProt Q8IUQ4-1 91-282)
chain: ANSVLFPCKYASSGCEITLPHTEKADHEELCEFRPYSCPCPGASCKWQGSLDAVMPHLMHQHKSITTLQGEDIVFLATDINLPGAVDWVMMQSCFGFHFMLVLEKQEKYDGHQQFFAIVQLIGTRKQAENFAYRLELNGHRRRLTWEATPRSIHEGIATAIMNSDCLVFDTSIAQLFAENGNLGINVTISMC
B2: myc-tagged full-length AUP1 (protein, UniProt Q9Y679-2 1-410)
chain: MELPSGPGPERLFDSHRLPGDCFLLLVLLLYAPVGFCLLVLRLFLGIHVFLVSCALPDSVLRRFVVRTMCAVLGLVARQEDSGLRDHSVRVLISNHVTPFDHNIVNLLTTCSTPLLNSPPSFVCWSRGFMEMNGRGELVESLKRFCASTRLPPTPLLLFPEEEATNGREGLLRFSSWPFSIQDVVQPLTLQVQRPLVSVTVSDASWVSELLWSLFVPFTVYQVRWLRPVHRQLGEANEEFALRVQQLVAKELGQTGTRLTPADKAEHMKRQRHPRLRPQSAQSSFPPSPGPSPDVQLATLAQRVKEVLPHVPLGVIQRDLAKTGCVDLTITNLLEGAVAFMPEDITKGTQSLPTASASKFPSSGPVTPQPTALTFAKSSWARQESLQERKQALYEYARRRFTERRAQEAD
B3: myc-tagged full-length WLS (protein, UniProt Q5T9L3-1 1-541)
chain: MAGAIIENMSTKKLCIVGGILLVFQIIAFLVGGLIAPGPTTAVSYMSVKCVDARKNHHKTKWFVPWGPNHCDKIRDIEEAIPREIEANDIVFSVHIPLPHMEMSPWFQFMLFILQLDIAFKLNNQIRENAEVSMDVSLAYRDDAFAEWTEMAHERVPRKLKCTFTSPKTPEHEGRYYECDVLPFMEIGSVAHKFYLLNIRLPVNEKKKINVGIGEIKDIRLVGIHQNGGFTKVWFAMKTFLTPSIFIIMVWYWRRITMMSRPPVLLEKVIFALGISMTFINIPVEWFSIGFDWTWMLLFGDIRQGIFYAMLLSFWIIFCGEHMMDQHERNHIAGYWKQVGPIAVGSFCLFIFDMCERGVQLTNPFYSIWTTDIGTELAMAFIIVAGICLCLYFLFLCFMVFQVFRNISGKQSSLPAMSKVRRLHYEGLIFRFKFLMLITLACAAMTVIFFIVSQVTEGHWKWGGVTVQVNSAFFTGIYGMWNLYVFALMFLYAPSHKNYGEDQSNGDLGVHSGEELQLTTTITHVDGPTEIYKLTRKEAQE
B4: myc-tagged full-length human SIAH1 (enzyme, UniProt Q8IUQ4-1 1-282)
chain: MSRQTATALPTGTSKCPPSQRVPALTGTTASNNDLASLFECPVCFDYVLPPILQCQSGHLVCSNCRPKLTCCPTCRGPLGSIRNLAMEKVANSVLFPCKYASSGCEITLPHTEKADHEELCEFRPYSCPCPGASCKWQGSLDAVMPHLMHQHKSITTLQGEDIVFLATDINLPGAVDWVMMQSCFGFHFMLVLEKQEKYDGHQQFFAIVQLIGTRKQAENFAYRLELNGHRRRLTWEATPRSIHEGIATAIMNSDCLVFDTSIAQLFAENGNLGINVTISMC
B5: myc-tagged truncated SIAH2 (trSIAH2, residues 122-324) (domain or fragment, UniProt O43255 122-324)
chain: IRNLAMEKVASAVLFPCKYATTGCSLTLHHTEKPEHEDICEYRPYSCPCPGASCKWQGSLEAVMSHLMHAHKSITTLQGEDIVFLATDINLPGAVDWVMMQSCFGHHFMLVLEKQEKYEGHQQFFAIVLLIGTRKQAENFAYRLELNGNRRRLTWEATPRSIHDGVAAAIMNSDCLVFDTAIAHLFADNGNLGINVTISTCCP
B6: myc-tagged full-length VAPA (protein, UniProt Q9P0L0-1 1-249)
chain: MASASGAMAKHEQILVLDPPTDLKFKGPFTDVVTTNLKLRNPSDRKVCFKVKTTAPRRYCVRPNSGIIDPGSTVTVSVMLQPFDYDPNEKSKHKFMVQTIFAPPNTSDMEAVWKEAKPDELMDSKLRCVFEMPNENDKLNDMEPSKAVPLNASKQDGPMPKPHSVSLNDTETRKLMEECKRLQGEMMKLSEENRHLRDEGLRLRKVAHSDKPGSTSTASFRDNVTSPLPSLLVVIAAIFIGFFLGKFIL
B7: KCNF1 (voltage-gated potassium channel Kv5.1) fragment 215-489, MYTH prey clone (domain or fragment, UniProt Q9H3M0 215-489)
chain: NRVEHPTLENVETACIGWFTLEYLLRLFSSPNKLHFALSFMNIVDVLAILPFYVSLTLTHLGARMMELTNVQQAVQALRIMRIARIFKLARHSSGLQTLTYALKRSFKELGLLLMYLAVGIFVFSALGYTMEQSHPETLFKSIPQSFWWAIITMTTVGYGDIYPKTTLGKLNAAISFLCGVIAIALPIHPIINNFVRYYNKQRVLETAAKHELELMELNSSSGGEGKTGGSRSDLDNLPPEPAGKEAPSCSSRLKLSHSDTFIPLLTEEKHHRTR
B8: WLS (Wntless/GPR177) fragment 451-541, MYTH prey clone (domain or fragment, UniProt Q5T9L3-1 451-541)
chain: IVSQVTEGHWKWGGVTVQVNSAFFTGIYGMWNLYVFALMFLYAPSHKNYGEDQSNGDLGVHSGEELQLTTTITHVDGPTEIYKLTRKEAQE
B9: VAPA (vesicle-associated membrane protein-A, VAP33) fragment 86-236, MYTH prey clone (domain or fragment, UniProt Q9P0L0-1 86-236)
chain: DPNEKSKHKFMVQTIFAPPNTSDMEAVWKEAKPDELMDSKLRCVFEMPNENDKLNDMEPSKAVPLNASKQDGPMPKPHSVSLNDTETRKLMEECKRLQGEMMKLSEENRHLRDEGLRLRKVAHSDKPGSTSTASFRDNVTSPLPSLLVVIA
B10: AUP1 (ancient ubiquitous protein 1) fragment 321-410, Y2H prey clone (domain or fragment, UniProt Q9Y679-2 321-410)
chain: AKTGCVDLTITNLLEGAVAFMPEDITKGTQSLPTASASKFPSSGPVTPQPTALTFAKSSWARQESLQERKQALYEYARRRFTERRAQEAD
B11: SIAH1 (seven in absentia homolog 1) fragment 1-233, Y2H prey clone (domain or fragment, UniProt Q8IUQ4-1 1-233)
chain: MSRQTATALPTGTSKCPPSQRVPALTGTTASNNDLASLFECPVCFDYVLPPILQCQSGHLVCSNCRPKLTCCPTCRGPLGSIRNLAMEKVANSVLFPCKYASSGCEITLPHTEKADHEELCEFRPYSCPCPGASCKWQGSLDAVMPHLMHQHKSITTLQGEDIVFLATDINLPGAVDWVMMQSCFGFHFMLVLEKQEKYDGHQQFFAIVQLIGTRKQAENFAYRLELNGHRRR
B12: SIAH2 (seven in absentia homolog 2) fragment 122-324, Y2H prey clone (domain or fragment, UniProt O43255 122-324)
chain: B5 chain
B13: S-tagged SIAH1 (residues 1-282, pET30a) (protein, UniProt Q8IUQ4-1 1-282)
chain: B4 chain
B14: S-tagged Zyxin (protein, UniProt Q15942-1 1-572)
chain: MAAPRPSPAISVSVSAPAFYAPQKKFGPVVAPKPKVNPFRPGDSEPPPAPGAQRAQMGRVGEIPPPPPEDFPLPPPPLAGDGDDAEGALGGAFPPPPPPIEESFPPAPLEEEIFPSPPPPPEEEGGPEAPIPPPPQPREKVSSIDLEIDSLSSLLDDMTKNDPFKARVSSGYVPPPVATPFSSKSSTKPAAGGTAPLPPWKSPSSSQPLPQVPAPAQSQTQFHVQPQPQPKPQVQLHVQSQTQPVSLANTQPRGPPASSPAPAPKFSPVTPKFTPVASKFSPGAPGGSGSQPNQKLGHPEALSAGTGSPQPPSFTYAQQREKPRVQEKQHPVPPPAQNQNQVRSPGAPGPLTLKEVEELEQLTQQLMQDMEHPQRQNVAVNELCGRCHQPLARAQPAVRALGQLFHIACFTCHQCAQQLQGQQFYSLEGAPYCEGCYTDTLEKCNTCGEPITDRMLRATGKAYHPHCFTCVVCARPLEGTSFIVDQANRPHCVPDYHKQYAPRCSVCSEPIMPEPGRDETVRVVALDKNFHMKCYKCEDCGKPLSIEADDNGCFPLDGHVLCRKCHTARAQT

Molecular target: FLAG-tagged mu-opioid receptor stably expressed in HEK293 cells (HEK-MOR)
Assay: co-IP; FLAG-tagged MOR, DOR or KOR immunoprecipitated with rabbit anti-FLAG on Protein-G Dynabeads from 1 mg lysate of stably expressing HEK293 cells transfected with tagged MORIPs; blot anti-myc or anti-HA; mock IP with non-specific rabbit IgG; cells of Figure 7B treated 6 hours with 30 µM MG132

Row | binding | Binder
1 | binds | B1
2 | binds | B2
3 | binds | B3
4 | binds | B4
5 | binds | B5
6 | binds | B6

Molecular target: full-length human mu-opioid receptor (MOR), MYTH bait in pCCW-STE (human)
Assay: two-hybrid; split-ubiquitin membrane yeast two-hybrid (MYTH) screen: full-length human MOR bait in pCCW-STE, human fetal brain library in pPR3-N, strain THY.AP4; quadruple dropout plates with 3AT; β-gal

Row | binding | Binder
7 | binds | B7
8 | binds | B8
9 | binds | B9

Molecular target: MOR C-terminal tail (C-tail, residues 361-420) fused to the GAL4 DNA binding domain (human)
Assay: two-hybrid; directed traditional Y2H: MOR IL1, IL2, IL3 or C-tail in pAS2-1 co-transformed with MORIP cDNA clones in pACT2 into MaV103; β-gal activity (blue colony)

Row | binding | Binder
10 | binds | B10
11 | no binding | B11
12 | no binding | B12

Molecular target: MOR-IL2-GST fusion protein (residues 166-187, pGEX-4T-1) (human)
Assay: pull-down; GST fusion protein bound to glutathione sepharose beads pulls down S-tagged protein from bacterial lysate; Western blot with HRP-conjugated anti-S-tag antibody; beads alone and GST-coated beads as controls; only the target purified

Row | binding | Binder
13 | binds | B13
14 | binds | B14

Results are given in words; binding and its absence hold for the method and conditions named. Binding can be weak; no strength is given. For some assays here: Where a sequence is shown, tags or fusion partners need not be part of it. For some assays here: In cells and extracts the contact can be indirect.
